Reference: publication PMC7545202

The chains behind the UniProt entries cited, without tags or fusion partners.
UniProt Q5NCY0: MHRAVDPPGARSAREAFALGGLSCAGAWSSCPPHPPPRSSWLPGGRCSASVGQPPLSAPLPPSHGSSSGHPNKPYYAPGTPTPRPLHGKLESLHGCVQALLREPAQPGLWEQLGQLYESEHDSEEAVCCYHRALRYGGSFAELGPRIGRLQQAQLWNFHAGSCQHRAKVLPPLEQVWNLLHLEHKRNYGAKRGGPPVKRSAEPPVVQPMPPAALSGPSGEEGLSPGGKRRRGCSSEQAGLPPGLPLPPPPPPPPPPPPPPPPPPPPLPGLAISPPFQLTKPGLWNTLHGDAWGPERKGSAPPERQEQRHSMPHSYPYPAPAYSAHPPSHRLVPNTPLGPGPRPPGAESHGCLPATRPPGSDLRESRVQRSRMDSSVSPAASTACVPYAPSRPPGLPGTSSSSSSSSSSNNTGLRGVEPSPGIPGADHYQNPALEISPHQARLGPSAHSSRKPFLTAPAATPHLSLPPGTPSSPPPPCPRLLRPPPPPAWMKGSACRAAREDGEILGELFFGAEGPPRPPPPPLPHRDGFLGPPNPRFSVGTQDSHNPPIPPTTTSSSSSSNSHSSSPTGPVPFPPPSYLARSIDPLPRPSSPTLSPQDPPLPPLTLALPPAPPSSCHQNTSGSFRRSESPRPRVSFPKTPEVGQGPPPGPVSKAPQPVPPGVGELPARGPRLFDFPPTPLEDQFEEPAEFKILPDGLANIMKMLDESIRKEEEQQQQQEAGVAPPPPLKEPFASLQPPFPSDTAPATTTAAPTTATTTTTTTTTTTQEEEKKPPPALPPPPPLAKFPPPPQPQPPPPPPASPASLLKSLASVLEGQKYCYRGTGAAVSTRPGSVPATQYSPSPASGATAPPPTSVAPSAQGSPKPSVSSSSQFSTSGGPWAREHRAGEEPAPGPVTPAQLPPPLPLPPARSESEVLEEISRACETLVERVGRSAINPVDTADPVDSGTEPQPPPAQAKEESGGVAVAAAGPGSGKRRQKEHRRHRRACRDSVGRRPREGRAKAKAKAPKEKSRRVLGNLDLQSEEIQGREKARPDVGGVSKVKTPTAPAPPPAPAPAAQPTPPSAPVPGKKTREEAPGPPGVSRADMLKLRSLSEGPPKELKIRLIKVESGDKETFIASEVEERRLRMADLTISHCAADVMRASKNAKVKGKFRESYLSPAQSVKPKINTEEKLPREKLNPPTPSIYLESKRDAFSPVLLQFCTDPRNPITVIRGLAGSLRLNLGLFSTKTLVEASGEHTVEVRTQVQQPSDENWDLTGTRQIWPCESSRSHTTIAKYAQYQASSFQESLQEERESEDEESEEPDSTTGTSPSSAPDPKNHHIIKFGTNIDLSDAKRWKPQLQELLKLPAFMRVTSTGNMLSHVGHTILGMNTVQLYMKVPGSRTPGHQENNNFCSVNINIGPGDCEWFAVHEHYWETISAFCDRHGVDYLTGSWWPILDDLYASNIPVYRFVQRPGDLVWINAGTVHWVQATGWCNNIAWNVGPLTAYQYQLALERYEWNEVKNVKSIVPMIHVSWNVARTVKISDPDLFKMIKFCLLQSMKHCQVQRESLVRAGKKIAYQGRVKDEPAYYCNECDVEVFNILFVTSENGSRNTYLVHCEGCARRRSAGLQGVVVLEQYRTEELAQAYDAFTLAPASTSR
UniProt Q6KCD5: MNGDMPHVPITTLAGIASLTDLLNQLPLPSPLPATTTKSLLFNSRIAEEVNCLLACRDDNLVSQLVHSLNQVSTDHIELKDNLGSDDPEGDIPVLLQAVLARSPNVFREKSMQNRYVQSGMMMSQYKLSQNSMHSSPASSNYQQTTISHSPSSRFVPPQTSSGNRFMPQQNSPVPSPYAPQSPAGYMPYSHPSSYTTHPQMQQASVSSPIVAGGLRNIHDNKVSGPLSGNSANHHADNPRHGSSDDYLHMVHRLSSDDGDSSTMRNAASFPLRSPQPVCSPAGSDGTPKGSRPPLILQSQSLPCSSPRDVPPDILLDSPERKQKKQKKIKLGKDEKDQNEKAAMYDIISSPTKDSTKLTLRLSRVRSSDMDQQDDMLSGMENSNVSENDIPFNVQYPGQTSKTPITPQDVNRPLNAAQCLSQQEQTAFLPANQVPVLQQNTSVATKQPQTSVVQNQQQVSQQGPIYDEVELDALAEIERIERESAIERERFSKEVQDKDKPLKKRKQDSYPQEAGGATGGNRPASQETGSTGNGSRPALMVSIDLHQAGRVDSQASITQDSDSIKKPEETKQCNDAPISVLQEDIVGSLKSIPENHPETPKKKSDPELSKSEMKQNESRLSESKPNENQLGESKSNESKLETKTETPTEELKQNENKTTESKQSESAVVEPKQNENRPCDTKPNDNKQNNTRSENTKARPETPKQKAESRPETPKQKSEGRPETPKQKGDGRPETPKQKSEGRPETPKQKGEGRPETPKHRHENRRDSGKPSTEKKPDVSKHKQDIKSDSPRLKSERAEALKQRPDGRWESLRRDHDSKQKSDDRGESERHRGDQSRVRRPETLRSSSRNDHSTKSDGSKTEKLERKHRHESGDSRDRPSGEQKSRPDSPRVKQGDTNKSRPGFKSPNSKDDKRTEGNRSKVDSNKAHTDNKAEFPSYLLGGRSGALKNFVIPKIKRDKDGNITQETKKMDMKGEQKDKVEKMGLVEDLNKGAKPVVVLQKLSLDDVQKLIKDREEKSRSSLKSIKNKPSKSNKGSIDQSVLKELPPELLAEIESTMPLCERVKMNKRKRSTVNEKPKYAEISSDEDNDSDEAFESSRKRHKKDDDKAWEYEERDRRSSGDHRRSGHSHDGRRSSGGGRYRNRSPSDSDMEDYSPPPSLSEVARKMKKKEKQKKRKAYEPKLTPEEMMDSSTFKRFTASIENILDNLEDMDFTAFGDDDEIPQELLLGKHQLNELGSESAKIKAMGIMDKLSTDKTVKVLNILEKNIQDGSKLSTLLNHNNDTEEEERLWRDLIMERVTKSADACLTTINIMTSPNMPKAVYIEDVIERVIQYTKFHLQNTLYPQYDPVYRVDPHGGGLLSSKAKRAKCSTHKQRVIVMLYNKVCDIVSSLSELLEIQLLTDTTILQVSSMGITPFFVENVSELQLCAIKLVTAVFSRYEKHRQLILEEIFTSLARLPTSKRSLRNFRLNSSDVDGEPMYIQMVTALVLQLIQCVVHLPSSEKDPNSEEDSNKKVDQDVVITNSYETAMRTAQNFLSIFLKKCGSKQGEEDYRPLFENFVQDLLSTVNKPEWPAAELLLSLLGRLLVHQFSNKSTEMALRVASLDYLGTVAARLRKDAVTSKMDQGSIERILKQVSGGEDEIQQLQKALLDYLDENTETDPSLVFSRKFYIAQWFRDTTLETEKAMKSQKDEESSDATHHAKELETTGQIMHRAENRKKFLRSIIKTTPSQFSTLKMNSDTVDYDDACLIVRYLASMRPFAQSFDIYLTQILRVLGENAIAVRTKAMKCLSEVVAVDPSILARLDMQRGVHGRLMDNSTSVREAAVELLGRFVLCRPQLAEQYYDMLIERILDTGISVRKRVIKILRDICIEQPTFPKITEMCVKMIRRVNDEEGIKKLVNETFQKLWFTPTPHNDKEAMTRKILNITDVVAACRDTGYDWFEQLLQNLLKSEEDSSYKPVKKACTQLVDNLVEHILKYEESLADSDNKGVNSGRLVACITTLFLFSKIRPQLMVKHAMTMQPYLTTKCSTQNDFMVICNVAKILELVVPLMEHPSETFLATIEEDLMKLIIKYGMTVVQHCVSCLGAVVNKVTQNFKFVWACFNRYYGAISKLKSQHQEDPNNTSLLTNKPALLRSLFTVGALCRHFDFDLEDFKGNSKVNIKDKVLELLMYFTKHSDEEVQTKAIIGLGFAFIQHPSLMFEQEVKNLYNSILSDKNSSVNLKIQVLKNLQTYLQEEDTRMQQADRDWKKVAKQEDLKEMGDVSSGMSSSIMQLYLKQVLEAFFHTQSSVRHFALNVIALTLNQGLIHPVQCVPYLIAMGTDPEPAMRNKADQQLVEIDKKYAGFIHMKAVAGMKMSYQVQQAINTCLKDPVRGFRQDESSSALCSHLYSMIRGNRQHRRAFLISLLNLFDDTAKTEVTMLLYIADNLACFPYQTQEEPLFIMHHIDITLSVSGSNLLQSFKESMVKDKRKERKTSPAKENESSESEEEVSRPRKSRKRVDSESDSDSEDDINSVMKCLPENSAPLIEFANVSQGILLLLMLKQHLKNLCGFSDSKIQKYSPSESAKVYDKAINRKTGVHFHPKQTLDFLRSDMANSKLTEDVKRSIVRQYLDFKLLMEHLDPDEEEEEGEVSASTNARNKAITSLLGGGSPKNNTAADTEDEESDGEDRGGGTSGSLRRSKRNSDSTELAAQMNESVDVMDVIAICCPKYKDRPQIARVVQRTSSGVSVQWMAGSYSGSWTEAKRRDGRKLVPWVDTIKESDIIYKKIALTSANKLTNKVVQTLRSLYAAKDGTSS

Target: 3×FLAG-tagged JMJD3 (mouse) (UniProt Q5NCY0)
Test: affinity purification with mass spectrometry; anti-FLAG M2 magnetic beads with nuclear extracts from OSKM-reprogrammed P2 MEFs with 3×FLAG-tagged JMJD3 or UTX; eluted with 3×FLAG peptide; eluates analysed by MS

| Molecule | binding |
| --- | --- |
| NIPBL (from UniProt Q6KCD5 1-2798) | binds |
| H3K27me2/1 demethylase KDM7A (enzyme, UniProt Q3UWM4 1-940) MAGAAAAVAAGAAAGAAAAAGSVSAPGRASAPPPPPPVYCVCRQPYDVNRFMIECDVCKDWFHGSCVGVEEHHAVDIDLYHCPDCAALHGSSLMKKRRNWHRHDYTEVDDGSKPVQAGTRAFVKELRSRVFPSADEIIVKMHGSQLTQRYLEKHGFDVPIMVPKLDDLGLRLPSPAFSVMDVERYVGGDKVIDVIDVARQADSKMTLHNYVKYFMNPDRPKVLNVISLEFSDTKMSELVEVPDIARKLSWVENYWPDDSVFPKPFVQKYCLMGVQDSYTDFHIDFGGTSVWYHVLWGEKIFYLIKPTNENLALYESWSSSVTQSEVFFGDKVDKCYKCVVKQGHTLFVPTGWIHAVLTSQDCMAFGGNFLHNLNIGMQLRCYEMEKRLKTPDLFKFPFFEAICWFVAKSLLETLKELKEDGFQPQSYLVQGVKALHTALKLWMKKELVSEHAFEIPDNVRPGHLIKELSKVIRAIEEENGKPVKSQGIPSVCPVSRPSNEASPPYHSRRKMRKLRDHNVRTPSNLDILELHTREVLKRLEMCPWEEDLLSSKLNGKFNKHLQPSSTVPEWRAKDNDLRLLLTNGRIIKDERQLFADRSLYTADSENEEDKKPTQNANMKTEQSSGREEAESQGSPKPLNRIFTSVRSELRSRPSEYSDGSDSEDSGPDCTALKINFATEDSESSGDEKKHEITSHFKEESDIVRNLLQKSQKPSRQEIPVKRECPTSTSTEEEAIQGMLSMAGLHYSSCLQRQIQSTDCSGEKNSLQDPSSCHGSNPEFRQLYRCNKPVEFGYHAKTEDQDLMTSSWNKQFDRTSRFNAQDLSRSQKHIKKESSSEINQKAQSRHCVDSNSSSIQNGKYTLNPSLVSCQISNGSLSPERPIGETSFSMPLHPTKRPASNPPPISNQATKGKRPKKGMATAKQRLGKILKLNRNGHARFFV | binds |

These are yes or no findings as the source states them, for the method shown. In cells and extracts the contact can be indirect. These calls come from enrichment with a bait or labelling near it, and not all partners need be listed.
